Test results: PMC4317163
No constants are given. Whether binding was seen depends on the method and setting. Binding calls can cover weak binding; strength is not graded here. Tags and fused reporters may be left off the sequences shown.

The chains behind the UniProt entries cited, without tags or fusion partners. Where a name states a change or a piece, a line headed by the entry shows the natural chain unless it says otherwise.
UniProt Q24478: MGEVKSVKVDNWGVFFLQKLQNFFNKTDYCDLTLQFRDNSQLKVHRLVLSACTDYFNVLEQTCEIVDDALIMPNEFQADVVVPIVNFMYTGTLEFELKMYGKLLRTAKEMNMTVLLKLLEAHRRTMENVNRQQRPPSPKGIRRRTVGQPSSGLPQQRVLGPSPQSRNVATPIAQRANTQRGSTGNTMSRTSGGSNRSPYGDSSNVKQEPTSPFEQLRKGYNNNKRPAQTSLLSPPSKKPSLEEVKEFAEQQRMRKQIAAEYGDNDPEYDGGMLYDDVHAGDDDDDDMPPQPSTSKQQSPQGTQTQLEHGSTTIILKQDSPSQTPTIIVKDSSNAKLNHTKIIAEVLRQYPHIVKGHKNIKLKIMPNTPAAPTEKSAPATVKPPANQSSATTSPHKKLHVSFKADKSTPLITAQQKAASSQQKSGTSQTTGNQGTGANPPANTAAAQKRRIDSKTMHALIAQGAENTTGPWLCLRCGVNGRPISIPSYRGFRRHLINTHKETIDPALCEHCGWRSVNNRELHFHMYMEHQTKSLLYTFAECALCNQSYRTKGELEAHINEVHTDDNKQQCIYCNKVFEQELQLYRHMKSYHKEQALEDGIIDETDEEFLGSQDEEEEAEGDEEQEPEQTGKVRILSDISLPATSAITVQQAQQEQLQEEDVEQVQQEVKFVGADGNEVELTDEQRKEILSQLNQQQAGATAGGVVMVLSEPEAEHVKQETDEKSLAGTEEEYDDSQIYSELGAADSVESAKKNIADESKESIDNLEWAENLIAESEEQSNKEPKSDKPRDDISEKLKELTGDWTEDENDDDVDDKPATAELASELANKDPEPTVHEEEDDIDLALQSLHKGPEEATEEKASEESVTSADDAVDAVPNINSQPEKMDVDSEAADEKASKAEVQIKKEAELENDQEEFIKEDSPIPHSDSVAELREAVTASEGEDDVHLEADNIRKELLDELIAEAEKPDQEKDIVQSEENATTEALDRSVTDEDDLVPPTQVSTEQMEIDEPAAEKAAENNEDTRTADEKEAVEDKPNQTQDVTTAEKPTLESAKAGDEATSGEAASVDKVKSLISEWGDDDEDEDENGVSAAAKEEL

B1: Pita fused to the GAL4 activating domain (protein, UniProt Q95RQ8 1-683)
chain: MAAKLEVREAMLTEKRVCRFCLTEQKLASIFEENPRVKTTANLPLQIMAITAIEVYAGDGMPGHICLECRLLFEHCYRFKQMCKRAETLLRQYPLTGNWPSPLEKPRAPMTMVASKKLLVVPAKTAEPSETPKKLLNTMAKSSSQVIIEDVQVLESAMVTPRTVAGSSPVPRRSHAYELKVDNNQELSMDDVQSMLEDMASELEKEFPDIPQKASPVKPKVLNKSSIRILNKGPAAPVEPRLATPKVKRDDSGNVAIVTEVLDSDLPLDDQDDPTKNAEKVATDVFPCPDCERSFPLQQLLEIHRLNHTRSRSFQCLLCEKSFFSKYDLAKHNFVHTGERPFKCAICSKAFTRKALLHRHERTHTDVPKFICVYCEKPFLSRQEMEKHAERHQKKRPFQCGVCTKSFAFKQGLERHETVHSTNLPFPCQHCERSFSTASKLARHLVAHAGKRAYPCKYCHKSYMLSHHLSRHLRTHTQTSDASFVCSECKVSYSNYNDLLDHALIHATASLKCPMCRKQIEDIDSVESHMDQHKQSERHACEFCDHIFLTQKCLQRHIEDDHVVEMEPYQNEFEDDGEGEGGVDEKEEHLDDFEDMDNVKQEEFVTEYLEDDALYEDHLDDSDESFTPPPPKQRKTNPPKDAQQSVRQTRSRDAQRITQKTGKNEGKPHHKLERNLKNRRSAK
B2: ZIPIC fused to the GAL4 activating domain (protein, UniProt Q9VAB8 1-457)
chain: MNCCICQFSVRVPKDIHTDTVGHPPVLISELVLQCTRGTNYVLTEESSTICKKCCEKLARYHKSIQIARKLRGEILELIHSPYMSKDHKQTSYKEDDLDRETTISKFDGNIEEAQQQDEEEQELESVGTTVTLVGPAGIVEEVAEEEHTFIIKQSEEEDEFHSVDLELDIDNEIIINEEEAHEVEEVAHEIEEVAHEIEEEDLLPHDKQEAQEEDFFKEDTMSDFDEHLDGAIEYIISDGEDQEQDNESSGEYTVNIQCPSCPEKFSSRRAYNVHTKREHFPGYVCDQCGKTLQSYSGFIGHLQNHEPVKQFACPVCPERFSRKFRLKHHMAWHSGETPYQCDVCSKRFVHKVALYKHKMIHDSETKRLECQVCGFKTRTKAHLERHMRSHTGDKPFACPVCNKRFSQMYNMKAHLREHESPGTNRHRRFHCSKCTHTFINEQNYDAHVQRDDCTPV

What was measured:
[1] = target: CP190 BTB domain fused to the GAL4 DNA-binding domain (Drosophila) (UniProt Q24478); assay: two-hybrid; yeast strain pJ69-4A, Clontech plasmids; CP190 or its fragments fused to the GAL4 DNA-binding domain, Pita/ZIPIC or their fragments fused to the GAL4 activating domain; growth on media without tryptophan, leucine, histidine and adenine, 30°C
[2] = target: CP190 region overlapping the M domain fused to the GAL4 DNA-binding domain (Drosophila); assay: as above

Row | Binder | binding [1] | binding [2]
1 | B1 | binds | –
2 | B2 | – | binds
